Each structure is given as a SMILES string. This is one part of the list. Repeats are few or missing, and single values can be far off.

In the test the test system is Plasmodium berghei sporozoites. The test is described as follows: residual sporozoite gliding motility relative to DMSO control; higher = less inhibition of motility. The conditions noted are these: 10 µM; incubation time 30 min.
Regarding `c1ccc(CNc2nc(Nc3ccccc3)nc3ccccc23)cc1`, the “residual sporozoite gliding motility” value is > 50%.

In the case of `Cc1c(C)n(CC(O)CNC2CCCCC2C)c2ccccc12` (stereo not drawn), the “residual sporozoite gliding motility” value is > 50%.

For the molecule `CC(=O)c1ccc(NC(=O)CSc2nc(-c3ccccc3Cl)ns2)cc1`, the “residual sporozoite gliding motility” value is > 50%.

`COc1ccc(CN2CCCC(C(=O)c3ccc(C(F)(F)F)cc3)C2)c(O)c1` (stereo not drawn): the “residual sporozoite gliding motility” value was > 50%. Consider `Cc1ccc(Cl)cc1N1CCN(CCCNC(=O)C2CCN(c3nc4ccccc4[nH]3)CC2)CC1`, for which the “residual sporozoite gliding motility” value is > 50%. In the case of `O=C(Nc1cccc(C2=NCCN2)c1)Nc1cccc(C2=NCCN2)c1`, the “residual sporozoite gliding motility” value was > 50%. In the case of `CCN(CC)c1cc(C)c2cc(NC(=O)c3cccc(OC)c3)ccc2n1` it was > 50%; in that of `O=C(Nc1ccc(Cl)cc1C(=O)Nc1ccncc1)c1ccc(Cl)cc1Cl`, > 50%; in that of `CCN(CC)c1ccc(NC(=O)c2cccs2)cc1`, > 50%. In the case of `COc1ccccc1C(=O)ON=C(N)Cc1cccc2ccccc12`, the “residual sporozoite gliding motility” value was > 50%. For `C[n+]1c2ccccc2nc2ccc(NCCO)cc21` the value was > 50%; for `CCCCCCC(O)(c1ccc(F)cc1)C(CN1CCOCC1)c1ccccc1` (stereo not drawn), > 50%. For `Cc1ccc(-c2cc3c(nn2)-c2ccccc2C3=O)cc1`, the “residual sporozoite gliding motility” value is > 50%.

In the case of `CCOc1cc2c(cc1OCC)C(c1cc(Cl)ccc1O)NCC2` (stereo not drawn), the “residual sporozoite gliding motility” value is > 50%.

Regarding `Nc1ccc(-c2nc3cc(Oc4ccc(Oc5ccc6[nH]c(-c7ccc(N)cc7)nc6c5)cc4)ccc3[nH]2)cc1`, the “residual sporozoite gliding motility” value is > 50%.

On to `COc1ccc(/C=C2/SC(=Nc3ccccc3)NC2=O)cc1`, for which the “residual sporozoite gliding motility” value is > 50%. In the case of `COCCNCC(O)Cn1c2ccc(Cl)cc2c2cc(Cl)ccc21` (stereo not drawn) it was > 50%. On to `COc1ccc(C(C)=O)cc1N1C(=O)C2C(C1=O)C1(c3ccccc3)C(=O)C2(c2ccccc2)C(c2ccc(C)cc2)=C1c1ccc(C)cc1` (stereo not drawn), for which the “residual sporozoite gliding motility” value is > 50%.

The values are drawn from the supplement of paper PMC6119338.
